{"sequences": {"note": "Sequences of proteins named here, by UniProt entry; tags and fusion partners are left off.", "UniProt P48729, whole entry": "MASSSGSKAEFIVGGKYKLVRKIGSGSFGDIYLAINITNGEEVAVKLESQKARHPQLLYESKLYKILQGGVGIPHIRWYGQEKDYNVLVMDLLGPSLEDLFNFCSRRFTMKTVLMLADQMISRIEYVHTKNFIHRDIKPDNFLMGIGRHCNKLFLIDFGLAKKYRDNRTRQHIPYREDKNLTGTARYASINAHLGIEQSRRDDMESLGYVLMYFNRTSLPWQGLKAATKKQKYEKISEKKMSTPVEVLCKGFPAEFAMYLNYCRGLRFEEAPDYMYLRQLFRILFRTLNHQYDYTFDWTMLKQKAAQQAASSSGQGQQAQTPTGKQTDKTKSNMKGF"}, "source": "patent US20230322767A1", "about": "“ARYL SUBSTITUTED PYRROLO-PYRIDINONES AND THERAPEUTIC USES THEREOF” (Bayer Aktiengesellschaft, priority 2020, published 2023)", "target": "CSNK1A1 (Homo sapiens (Human), UniProt P48729)", "assay": "CSNK1A1 Assay 1 (ADP-Glo, 1 μM ATP)", "conditions": "read-out: CSNK1A1 Assay 1 IC50 [mol/l] (median), comparison compounds of WO 2016/120196", "note": "Some entries of the source have several records that differ or are many. The list is limited to them. The source may hold further records. Values given together differ, and nothing given here explains why; they may come from other doses, times, organisms or constructs than stated."}
{"smiles": "CN1CCc2[nH]c(-c3ccnc(NC(=O)C4CC4)c3)c(Nc3ccccc3)c2C1=O", "values": [{"measurement": "IC50", "result": "9.32, 10.1, 5.57, 4.38 nM"}]}
